Source: publication doi:10.1101/2021.01.06.425598
Changes are numbered by the printed parent chain. Results are given in words; binding and its absence hold for the method and conditions named. Binding seen in cells or lysates may run through a third protein. Some entries that bind do so weakly or less than the wild type. Sequences can lack the tags named with a protein.

Chains of the proteins cited; added tags and fusions are not shown. Lines headed by an entry give the natural chain unless they say otherwise; changes in a name come on top.
UniProt Q14974, whole entry: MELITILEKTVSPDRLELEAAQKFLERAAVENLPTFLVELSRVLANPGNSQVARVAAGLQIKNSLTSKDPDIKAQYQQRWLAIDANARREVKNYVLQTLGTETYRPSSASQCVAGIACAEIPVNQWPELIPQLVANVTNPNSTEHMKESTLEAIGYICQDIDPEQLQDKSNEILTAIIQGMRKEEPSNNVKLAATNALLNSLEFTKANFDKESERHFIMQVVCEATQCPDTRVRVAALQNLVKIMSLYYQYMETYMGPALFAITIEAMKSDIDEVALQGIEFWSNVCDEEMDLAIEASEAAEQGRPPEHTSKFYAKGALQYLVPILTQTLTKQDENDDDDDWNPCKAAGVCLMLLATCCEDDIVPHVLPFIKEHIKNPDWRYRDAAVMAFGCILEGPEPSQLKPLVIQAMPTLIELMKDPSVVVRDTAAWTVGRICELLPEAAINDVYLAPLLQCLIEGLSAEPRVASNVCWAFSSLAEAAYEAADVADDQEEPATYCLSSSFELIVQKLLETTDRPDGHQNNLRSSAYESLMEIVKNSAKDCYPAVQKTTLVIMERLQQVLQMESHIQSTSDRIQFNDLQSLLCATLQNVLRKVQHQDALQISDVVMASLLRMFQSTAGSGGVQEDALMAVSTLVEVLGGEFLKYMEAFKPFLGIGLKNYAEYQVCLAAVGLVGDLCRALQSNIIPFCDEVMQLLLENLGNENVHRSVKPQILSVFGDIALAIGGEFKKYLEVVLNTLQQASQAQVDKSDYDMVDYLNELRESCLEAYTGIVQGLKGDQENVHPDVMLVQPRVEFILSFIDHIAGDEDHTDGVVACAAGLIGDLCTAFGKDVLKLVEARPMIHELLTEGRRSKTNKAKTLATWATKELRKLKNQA

Key:
Test in all cases: pull-down
[1] = molecular target: T1, GST-tagged ANI-1 (RBD + C2) (C. elegans) (UniProt Q9XTT4)
T1 sequence: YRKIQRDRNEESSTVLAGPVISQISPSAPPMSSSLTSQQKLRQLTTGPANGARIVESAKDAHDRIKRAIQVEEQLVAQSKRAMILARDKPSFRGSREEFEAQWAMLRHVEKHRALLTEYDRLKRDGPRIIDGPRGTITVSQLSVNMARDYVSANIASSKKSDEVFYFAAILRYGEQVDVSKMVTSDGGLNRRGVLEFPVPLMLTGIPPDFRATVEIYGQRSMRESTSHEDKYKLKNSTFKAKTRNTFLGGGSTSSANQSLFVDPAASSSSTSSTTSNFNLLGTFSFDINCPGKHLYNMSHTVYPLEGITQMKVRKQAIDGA

[2] = molecular target: T2, MBP-tagged ANI-1 (RBD + C2) K938E; K940E (C. elegans) (UniProt Q9XTT4)
T2 sequence: T1 sequence with K231E, K233E

[3] = molecular target: T3, MBP-tagged ANI-1 (RBD + C2) K947A; K949A (C. elegans) (UniProt Q9XTT4)
T3 sequence: T1 sequence with K240A, K242A

Measured: binding

Myc-tagged human importin-β (from UniProt Q14974 1-876)
binds: all assays above
